The values that follow come from publication PMC7053155.

These are yes or no findings as the source states them, for the method shown. A result given as binding can be weak or reduced; the word gives no strength.

The test has as its target ZjMAPKK4 (Ziziphus jujuba Mill. (Chinese jujube)). Briefly: two-hybrid; ZjCNGC2 fused to Gal4 AD (pGADT7), ZjMAPKs/ZjMAPKKs fused to Gal4 BD (pGBKT7); co-transformed into yeast AH109; selection on -LW, -LWH, -LWH + 7 mM 3-AT and -LWAH media.

B1: ZjCNGC2 (cyclic nucleotide gated channel 2 of Chinese jujube, Ziziphus jujuba Mill.) (protein, UniProt A0AC41Z618 1-727)
chain: MNSKGPKFVRFEDWKSEISVSYERESPTSNDGSYPGKAREHVKGVLRNIGRGFKRCYESIRSLRTKTLSSRTTYATKRPEKDAASKKKIFDPQGAFLQQWNKIFVLSCVIAISLDPLFLYIPTIDTNQQCLSLDTPLEITACVLRTFTDIFYVVHIIFQFRTGFIAPSSRVFGRGELIDDPVAIAKRYLSTYFIIDVLAILPLPQVVVLIVIPQIKGPVALVTKDILEYVIFCQYVPRLIRIIPLYREVTRTSGLFTETAWAGAAFNLFLYMLASHVAGAVWYLLAIERADRCWHDQFKNKPWDHSYLYCGEDRKDLPIADISLALNTSCPFIDPDEIKNSGIFNFGIFADALTSGIVDYDDFSTKIFYCFWWGLRNLSSLGQNLKTSTFVGEIIFAVCIAVFGLVLFSLLIGNMQKYLQSTTVRVEEMRVRRRDAEQWMTHRMLPPNLKERIKRYEQYKWQETRGADEDNLIRNLPKDLRRDIKRHLCLSLLTRVPMFEKMDEQLLDALCDRLKPVLYTEKSFVLREGDPVDEMVFIMRGNLATMTTNGGRTGFFNSVDLKAGDFCGEELLTWALDPNSATSLPTSTRTVEALTEVEAFALMADDLKFVASQFRRLHSKQLRHDFRFYSLQWRTWAACFIQVAWRRHCKRKLDKSLREAEDRLQNALANEVGSTPSLGATIYASRFAANALRTMRKNGAVSARPPQRLLPLLPQKPAEPDFTAEGR
B1: the binding result is reported as “binds”.
